pIC50: −log10 of the molar value. At least one peptide structure holds a part that was inferred or is arguable (an end, a ring closure or a residue).
Columns and labels:
[1] = test system: endothelin-1-pressor response; assay: Effect on endothelin-1 pressor response in rats; format: in vivo; design: key: ++: completely antagonized (almost 100%); +: moderately antagonized (about 50%); -: no effect; details: Wistar rats, 10 mg/kg intravenous, 20 minutes after starting i.v. endothelin-1 (3.2 μg/kg)
[2] = test system: specific binding of 125I-endothelin-1 in porcine aorta membrane (crude receptor membrane preparation); assay: Radioligand binding assay: 125I-endothelin-1 binding to porcine aorta membrane; details: 125I-endothelin-1 1.67×10^-11 M, room temperature, 60 minutes; read-out: IC50, effect on specific binding of 125I-endothelin-1 in porcine aorta membrane
[3] = test system: intimal thickening of carotid artery; assay: Effect on intimal thickening of carotid artery after endothelial denudation with balloon catheter in rats; format: in vivo, Sprague-Dawley rats
myocardial infarction = assay: Effect on myocardial infarction (coronary ligation/reperfusion) in rats; format: in vivo; details: SD rats, 100 mg/kg subcutaneously 60 minutes before coronary ligation; 60 min ligation, 24 h reperfusion; vehicle 18.3
[4] = 100 mg/kg s.c. once a day, versus vehicle

Row | SMILES | Response (antagonism of endothelin-1 pressor response) [1] | pIC50 [2] | area of neointima (mm^2) ([3]; 100 mg/kg s.c. once a day from 2 days before to 13 days after balloon injury, 14 days after injury, vehicle 0.170 ± 0.034) | (I)/(M), ratio of cross-sectional area of neointima to media ([3]; 100 mg/kg s.c. once a day, 14 days after injury, vehicle 0.850 ± 0.166) | inhibition (%) of (I)/(M) [3, 4] [%] | inhibition (%) of area of neointima [3, 4] [%] | Index of myocardial infarction (%) (myocardial infarction)
1 | CC(C)C[C@H](NC(=O)NC1CCCCC1)C(=O)N[C@H](Cc1cn(C)c2ccccc12)C(=O)N[C@H](Cc1ccccn1)C(=O)O [A] | ++ | 8.64 |  |  |  |  | 
2 | CC(C)C[C@H](NC(=O)N1CCCCCC1)C(=O)N[C@H](Cc1cn(C)c2ccccc12)C(=O)N[C@H](Cc1ccccn1)C(=O)O [F] |  |  | 0.098 ± 0.028 | 0.615 ± 0.182 | 27.7 | 42.4 | 10.6

Reference: US5656604A, “Peptide compound and its preparation” (Fujisawa Pharmaceutical Co., Ltd., priority 1990, dated 1997)
